PubChem BioAssay AID743454 | Peter MacCallum Cancer Centre – 2014
Here is an unselected part of about 18,000 reagents. 450 of them (2.5%) count as active. 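Single biological run; no consistent viability z cut-off exists, so the class columns, not z-scores, define the calls.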

- Assay: 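Genes whose loss kills vorinostat-resistant colon cancer cells under vorinostat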 (primary screen)
- Cell system: human HCT116-VR colon cancer cells, selected for vorinostat resistance
- Knock-down reagent: siRNA pool against human genes, 40 nM siRNA pool
- Time to read-out: vorinostat for 24 h, read-out about 72 h after transfection
- Treatment: vorinostat at 2.5 µM final
- Detection: 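Two measures, CellTiter-Fluor viability and luminescent caspase 3/7 activity, each as fold change against same-plate mock wells, mean of duplicates, then screen-wide robust z-score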
- Reading the numbers: viability robust z-score: higher = more viable cells than screen typical; caspase robust z-score: higher = more caspase 3/7 activity than screen typical
- Hit rule: 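Hits are knock-downs in viability class RV1/RV2 or caspase class CA1/CA2, excluding ones that killed cells in the no-drug cell-count arm; hits then retested with single siRNAs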

Against QKI the deposit lists viability hit class no change; caspase hit class no change; viability robust z-score -0.85; caspase robust z-score 1.44; inactive. Silencing of EMB came out at: viability hit class no change; caspase hit class no change; viability robust z-score -0.44; caspase robust z-score 0.62; inactive. BTN1A1 gave viability hit class no change; caspase hit class no change; viability robust z-score 0.6; caspase robust z-score -1.03; inactive. After knock-down of DIAPH3, the record shows viability hit class no change; caspase hit class no change; viability robust z-score 0.48; caspase robust z-score 0.31; inactive. Silencing of PNPT1 came out at: viability hit class no change; caspase hit class no change; viability robust z-score -1.31; caspase robust z-score 2.89; inactive. With knock-down of CDK5RAP2, the record shows viability hit class no change; caspase hit class no change; viability robust z-score -0.16; caspase robust z-score 0.66; inactive.

For NPM2 the deposit lists viability hit class no change; caspase hit class no change; viability robust z-score -0.07; caspase robust z-score -0.1; inactive. PTGIR showed viability hit class no change; caspase hit class no change; viability robust z-score 0.53; caspase robust z-score 3.59; inactive. CILP scored viability hit class no change; caspase hit class no change; viability robust z-score -0.1; caspase robust z-score 4.52; inactive. For MAGI2, the entry reads viability hit class no change; caspase hit class no change; viability robust z-score 0.68; caspase robust z-score -0.8; inactive. Knock-down of ZNF681 gave: viability hit class no change; caspase hit class no change; viability robust z-score 0.52; caspase robust z-score -0.3; inactive. After knock-down of NBR1, the record shows viability hit class no change; caspase hit class no change; viability robust z-score -0.55; caspase robust z-score 0.73; inactive.

FAM43B gave viability hit class no change; caspase hit class no change; viability robust z-score 0.1; caspase robust z-score 0.62; inactive. EIF4EBP3 showed viability hit class no change; caspase hit class no change; viability robust z-score -0.04; caspase robust z-score -0.59; inactive. PCDHA11 scored viability hit class no change; caspase hit class no change; viability robust z-score -0.38; caspase robust z-score 1.52; inactive. Against MTRFR the deposit lists viability hit class no change; caspase hit class no change; viability robust z-score -1.46; caspase robust z-score -0.3; inactive. With knock-down of CATSPERG, the screen gave viability hit class no change; caspase hit class no change; viability robust z-score -1.29; caspase robust z-score -1.12; inactive. For AMMECR1, the entry reads viability hit class no change; caspase hit class no change; viability robust z-score -1.62; caspase robust z-score 0.44; inactive.

SF3B3 showed viability hit class no change; caspase hit class no change; viability robust z-score -3.67; caspase robust z-score 3.98; inactive. Knock-down of ARHGAP1 gave: viability hit class no change; caspase hit class no change; viability robust z-score -0.09; caspase robust z-score -0.25; inactive. After knock-down of NSD3 the results were viability hit class no change; caspase hit class no change; viability robust z-score -0.96; caspase robust z-score -0.08; inactive. CDKN2AIP scored viability hit class no change; caspase hit class no change; viability robust z-score 0.43; caspase robust z-score -0.07; inactive. GDF15 gave viability hit class no change; caspase hit class no change; viability robust z-score -0.7; caspase robust z-score 2.53; inactive. DYNAP showed viability hit class no change; caspase hit class no change; viability robust z-score 0.6; caspase robust z-score -0.66; inactive.

With knock-down of PIGN, the record shows viability hit class no change; caspase hit class no change; viability robust z-score 0.45; caspase robust z-score -0.18; inactive. TOP1MT gave viability hit class no change; caspase hit class no change; viability robust z-score 0.64; caspase robust z-score -1.19; inactive. With knock-down of ANKRD13C-DT, the record shows viability hit class no change; caspase hit class CA2 (caspase activation); viability robust z-score -1.42; caspase robust z-score 7.66; active.

2 of these entries, reformatted.
gene	viability hit class	caspase hit class	viability robust z-score	caspase robust z-score	activity call
BTN1A1	no change	no change	0.6	-1.03	inactive
DIAPH3	no change	no change	0.48	0.31	inactive
